Results: the supplement of paper PMC10849652
The other results are listed elsewhere or left out.

Amino acid sequences for entries named in this document (tags omitted). A change or cut given only in a name is not applied to a line headed by its entry.
UniProt Q96SY0, whole entry, looked up: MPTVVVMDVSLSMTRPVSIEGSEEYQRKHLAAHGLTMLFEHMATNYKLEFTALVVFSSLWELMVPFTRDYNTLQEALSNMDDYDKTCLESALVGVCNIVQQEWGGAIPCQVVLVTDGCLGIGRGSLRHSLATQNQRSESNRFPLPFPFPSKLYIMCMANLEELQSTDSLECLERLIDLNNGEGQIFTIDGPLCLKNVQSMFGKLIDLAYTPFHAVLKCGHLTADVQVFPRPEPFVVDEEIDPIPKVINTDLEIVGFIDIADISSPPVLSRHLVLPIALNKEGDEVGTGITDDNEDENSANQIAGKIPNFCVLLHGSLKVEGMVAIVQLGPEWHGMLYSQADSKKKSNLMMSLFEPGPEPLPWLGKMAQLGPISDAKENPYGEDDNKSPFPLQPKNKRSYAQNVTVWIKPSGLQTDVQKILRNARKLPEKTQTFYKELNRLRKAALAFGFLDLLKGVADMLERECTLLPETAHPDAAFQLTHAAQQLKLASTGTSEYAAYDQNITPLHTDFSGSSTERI
UniProt Q6P9B9, whole entry, looked up: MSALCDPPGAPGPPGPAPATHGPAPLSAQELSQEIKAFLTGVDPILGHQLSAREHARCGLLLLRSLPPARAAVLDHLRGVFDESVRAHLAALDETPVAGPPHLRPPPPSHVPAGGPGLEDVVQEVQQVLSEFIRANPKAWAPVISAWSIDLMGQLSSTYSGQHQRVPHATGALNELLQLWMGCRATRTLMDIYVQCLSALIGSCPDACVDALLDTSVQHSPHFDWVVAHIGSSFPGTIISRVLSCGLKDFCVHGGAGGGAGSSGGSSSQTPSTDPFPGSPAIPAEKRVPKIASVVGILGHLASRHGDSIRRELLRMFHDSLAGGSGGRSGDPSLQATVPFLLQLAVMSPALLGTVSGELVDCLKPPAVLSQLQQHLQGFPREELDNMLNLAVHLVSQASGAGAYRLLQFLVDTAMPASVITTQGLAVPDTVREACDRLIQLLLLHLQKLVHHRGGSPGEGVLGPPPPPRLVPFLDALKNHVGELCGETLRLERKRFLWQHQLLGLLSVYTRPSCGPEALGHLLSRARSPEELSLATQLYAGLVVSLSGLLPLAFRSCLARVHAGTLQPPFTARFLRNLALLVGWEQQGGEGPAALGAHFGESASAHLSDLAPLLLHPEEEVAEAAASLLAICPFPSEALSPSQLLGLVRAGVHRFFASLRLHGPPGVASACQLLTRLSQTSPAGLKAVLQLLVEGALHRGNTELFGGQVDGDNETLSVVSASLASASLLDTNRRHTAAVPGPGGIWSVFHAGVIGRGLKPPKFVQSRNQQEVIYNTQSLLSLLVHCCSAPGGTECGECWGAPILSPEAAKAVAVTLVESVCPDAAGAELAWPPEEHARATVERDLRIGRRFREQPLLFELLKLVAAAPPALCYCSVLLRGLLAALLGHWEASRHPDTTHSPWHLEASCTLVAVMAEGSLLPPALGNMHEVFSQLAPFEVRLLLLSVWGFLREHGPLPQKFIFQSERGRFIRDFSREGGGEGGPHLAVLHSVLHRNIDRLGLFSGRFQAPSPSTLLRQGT
UniProt Q13303: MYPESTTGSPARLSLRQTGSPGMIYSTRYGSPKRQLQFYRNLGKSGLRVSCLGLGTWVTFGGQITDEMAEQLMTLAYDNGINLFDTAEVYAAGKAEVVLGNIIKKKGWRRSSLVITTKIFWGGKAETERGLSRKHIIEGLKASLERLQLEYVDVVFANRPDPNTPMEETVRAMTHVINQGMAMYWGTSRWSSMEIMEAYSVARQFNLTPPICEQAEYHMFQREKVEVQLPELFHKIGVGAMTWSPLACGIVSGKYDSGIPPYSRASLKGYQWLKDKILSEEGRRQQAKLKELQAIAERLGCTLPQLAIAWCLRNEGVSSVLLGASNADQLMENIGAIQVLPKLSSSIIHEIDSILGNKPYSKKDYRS
UniProt O76095: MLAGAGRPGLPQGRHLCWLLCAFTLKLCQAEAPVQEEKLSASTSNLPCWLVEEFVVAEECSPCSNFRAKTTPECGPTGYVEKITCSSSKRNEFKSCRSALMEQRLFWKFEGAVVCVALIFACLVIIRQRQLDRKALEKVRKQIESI
UniProt Q8TB96: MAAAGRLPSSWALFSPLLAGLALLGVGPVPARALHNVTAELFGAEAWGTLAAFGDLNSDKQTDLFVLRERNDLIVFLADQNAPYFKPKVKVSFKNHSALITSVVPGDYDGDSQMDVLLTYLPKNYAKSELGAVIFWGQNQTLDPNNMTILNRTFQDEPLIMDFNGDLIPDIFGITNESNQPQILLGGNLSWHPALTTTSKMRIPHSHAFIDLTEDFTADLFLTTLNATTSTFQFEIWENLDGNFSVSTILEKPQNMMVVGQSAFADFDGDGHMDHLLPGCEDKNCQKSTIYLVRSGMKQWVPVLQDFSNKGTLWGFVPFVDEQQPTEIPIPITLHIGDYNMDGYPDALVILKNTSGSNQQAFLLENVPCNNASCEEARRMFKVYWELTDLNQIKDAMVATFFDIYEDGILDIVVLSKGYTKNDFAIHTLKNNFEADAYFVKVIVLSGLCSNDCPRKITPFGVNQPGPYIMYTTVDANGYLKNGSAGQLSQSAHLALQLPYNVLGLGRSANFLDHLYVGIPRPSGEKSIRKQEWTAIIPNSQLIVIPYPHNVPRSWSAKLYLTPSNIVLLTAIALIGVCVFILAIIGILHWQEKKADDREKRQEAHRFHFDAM
UniProt Q15811: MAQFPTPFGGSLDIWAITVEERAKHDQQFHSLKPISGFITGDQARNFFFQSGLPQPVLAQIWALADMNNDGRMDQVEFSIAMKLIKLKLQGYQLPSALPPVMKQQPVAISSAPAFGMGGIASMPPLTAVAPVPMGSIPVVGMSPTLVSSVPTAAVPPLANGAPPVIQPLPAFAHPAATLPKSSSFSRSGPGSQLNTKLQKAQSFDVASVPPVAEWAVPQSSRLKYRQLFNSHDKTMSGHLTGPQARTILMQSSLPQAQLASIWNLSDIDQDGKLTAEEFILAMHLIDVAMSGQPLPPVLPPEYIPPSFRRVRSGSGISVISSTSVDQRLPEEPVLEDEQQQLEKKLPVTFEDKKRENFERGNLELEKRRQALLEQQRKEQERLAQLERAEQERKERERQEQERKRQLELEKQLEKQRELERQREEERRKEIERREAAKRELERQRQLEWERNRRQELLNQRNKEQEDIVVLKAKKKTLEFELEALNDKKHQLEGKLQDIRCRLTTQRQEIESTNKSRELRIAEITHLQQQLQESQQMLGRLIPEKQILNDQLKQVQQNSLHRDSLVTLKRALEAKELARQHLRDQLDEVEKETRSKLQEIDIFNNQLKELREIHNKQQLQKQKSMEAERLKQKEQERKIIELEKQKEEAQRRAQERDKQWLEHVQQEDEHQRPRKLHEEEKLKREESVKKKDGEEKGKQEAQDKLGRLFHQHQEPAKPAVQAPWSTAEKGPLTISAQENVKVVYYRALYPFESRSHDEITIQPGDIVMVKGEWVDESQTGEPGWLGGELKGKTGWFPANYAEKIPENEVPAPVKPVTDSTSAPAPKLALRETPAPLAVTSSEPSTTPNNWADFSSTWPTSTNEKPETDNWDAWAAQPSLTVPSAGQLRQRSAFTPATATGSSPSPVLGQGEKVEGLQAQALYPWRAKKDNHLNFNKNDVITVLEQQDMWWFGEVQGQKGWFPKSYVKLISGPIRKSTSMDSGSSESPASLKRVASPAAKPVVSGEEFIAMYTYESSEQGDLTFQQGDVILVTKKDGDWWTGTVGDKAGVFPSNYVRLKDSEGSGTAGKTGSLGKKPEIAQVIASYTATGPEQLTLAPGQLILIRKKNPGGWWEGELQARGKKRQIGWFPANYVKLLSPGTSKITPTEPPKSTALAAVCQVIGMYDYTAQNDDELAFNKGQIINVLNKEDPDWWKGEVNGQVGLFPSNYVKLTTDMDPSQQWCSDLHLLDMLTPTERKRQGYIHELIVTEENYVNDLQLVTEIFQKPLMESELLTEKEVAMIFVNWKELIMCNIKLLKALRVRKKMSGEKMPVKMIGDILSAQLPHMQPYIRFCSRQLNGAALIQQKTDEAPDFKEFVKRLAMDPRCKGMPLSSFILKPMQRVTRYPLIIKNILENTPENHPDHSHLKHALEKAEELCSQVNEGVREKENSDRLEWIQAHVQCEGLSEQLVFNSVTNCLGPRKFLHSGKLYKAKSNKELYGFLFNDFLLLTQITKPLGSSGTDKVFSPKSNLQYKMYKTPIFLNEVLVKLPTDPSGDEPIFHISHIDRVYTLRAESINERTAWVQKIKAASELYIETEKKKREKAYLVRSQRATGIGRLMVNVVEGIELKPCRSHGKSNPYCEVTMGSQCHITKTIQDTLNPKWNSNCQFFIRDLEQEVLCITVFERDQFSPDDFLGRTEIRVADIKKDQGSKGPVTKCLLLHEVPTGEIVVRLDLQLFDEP
UniProt Q9Y6Y0: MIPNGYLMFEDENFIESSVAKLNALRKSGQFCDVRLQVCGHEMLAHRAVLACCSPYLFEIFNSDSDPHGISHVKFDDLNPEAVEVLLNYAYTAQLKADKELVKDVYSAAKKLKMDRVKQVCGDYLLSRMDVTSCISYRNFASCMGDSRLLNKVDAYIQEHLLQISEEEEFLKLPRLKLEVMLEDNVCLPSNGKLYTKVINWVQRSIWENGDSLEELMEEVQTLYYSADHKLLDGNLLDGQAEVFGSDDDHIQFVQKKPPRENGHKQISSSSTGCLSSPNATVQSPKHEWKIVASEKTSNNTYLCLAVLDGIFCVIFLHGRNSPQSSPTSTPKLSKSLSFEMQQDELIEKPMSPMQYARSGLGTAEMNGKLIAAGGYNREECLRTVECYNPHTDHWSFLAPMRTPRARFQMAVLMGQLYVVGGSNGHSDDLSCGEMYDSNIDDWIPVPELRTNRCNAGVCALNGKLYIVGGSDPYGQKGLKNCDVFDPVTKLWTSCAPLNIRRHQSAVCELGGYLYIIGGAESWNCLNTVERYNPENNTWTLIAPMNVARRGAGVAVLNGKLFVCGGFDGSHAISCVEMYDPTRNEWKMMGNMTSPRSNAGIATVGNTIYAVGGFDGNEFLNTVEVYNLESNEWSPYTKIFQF
UniProt P05556, whole entry, looked up: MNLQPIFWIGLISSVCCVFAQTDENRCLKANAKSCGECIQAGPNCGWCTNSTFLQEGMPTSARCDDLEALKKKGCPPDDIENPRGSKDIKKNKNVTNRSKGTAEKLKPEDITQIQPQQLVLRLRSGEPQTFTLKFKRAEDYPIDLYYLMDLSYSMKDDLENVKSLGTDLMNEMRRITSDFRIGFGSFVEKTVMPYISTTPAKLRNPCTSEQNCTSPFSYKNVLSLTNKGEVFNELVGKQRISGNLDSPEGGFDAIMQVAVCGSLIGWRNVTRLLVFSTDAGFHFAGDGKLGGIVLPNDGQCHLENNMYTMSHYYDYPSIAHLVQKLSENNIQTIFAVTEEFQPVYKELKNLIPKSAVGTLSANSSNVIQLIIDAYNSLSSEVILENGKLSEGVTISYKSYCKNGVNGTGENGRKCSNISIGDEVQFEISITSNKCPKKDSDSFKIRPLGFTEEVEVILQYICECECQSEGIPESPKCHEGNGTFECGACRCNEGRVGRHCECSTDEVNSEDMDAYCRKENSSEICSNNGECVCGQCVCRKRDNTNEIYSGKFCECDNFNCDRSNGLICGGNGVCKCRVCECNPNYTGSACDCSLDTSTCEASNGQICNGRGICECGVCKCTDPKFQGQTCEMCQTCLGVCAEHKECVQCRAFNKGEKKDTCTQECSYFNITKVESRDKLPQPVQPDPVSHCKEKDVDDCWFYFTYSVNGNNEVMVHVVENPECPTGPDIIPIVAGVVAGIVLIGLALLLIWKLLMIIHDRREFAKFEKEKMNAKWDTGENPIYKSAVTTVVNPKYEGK
UniProt O95251, whole entry, looked up: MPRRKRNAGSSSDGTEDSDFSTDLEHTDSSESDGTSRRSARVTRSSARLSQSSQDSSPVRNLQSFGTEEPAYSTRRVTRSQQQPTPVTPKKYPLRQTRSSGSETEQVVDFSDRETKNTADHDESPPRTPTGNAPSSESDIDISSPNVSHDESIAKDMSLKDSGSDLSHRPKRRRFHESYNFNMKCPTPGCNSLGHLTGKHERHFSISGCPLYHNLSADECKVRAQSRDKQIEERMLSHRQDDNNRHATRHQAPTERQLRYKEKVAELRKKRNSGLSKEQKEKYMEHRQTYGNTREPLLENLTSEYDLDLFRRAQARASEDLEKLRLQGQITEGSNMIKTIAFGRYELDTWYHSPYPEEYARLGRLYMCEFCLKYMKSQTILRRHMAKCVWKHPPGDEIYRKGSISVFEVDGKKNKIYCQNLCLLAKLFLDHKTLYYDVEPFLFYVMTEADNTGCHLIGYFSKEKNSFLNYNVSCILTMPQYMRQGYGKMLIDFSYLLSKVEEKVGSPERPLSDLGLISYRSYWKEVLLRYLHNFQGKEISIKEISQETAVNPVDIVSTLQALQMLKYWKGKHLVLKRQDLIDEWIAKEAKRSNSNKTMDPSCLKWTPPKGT
UniProt Q9UK76: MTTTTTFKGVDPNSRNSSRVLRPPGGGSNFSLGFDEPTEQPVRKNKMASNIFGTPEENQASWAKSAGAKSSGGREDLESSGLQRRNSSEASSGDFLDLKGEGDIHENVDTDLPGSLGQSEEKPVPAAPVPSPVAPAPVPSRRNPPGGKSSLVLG

How the values were obtained:
Test in all cases: log2 fold change, soluble protein after heating vs DMSO (PISA); higher = thermal stabilisation; K562 lysate, 10 uM; active = over 0.2 and 3.5 SD of the protein, either way, in both replicates (recomputed)
[1] = compound: C=CC(=O)N1CCC[C@@H](n2nc(-c3ccc(Oc4ccccc4)cc3)c3c(N)ncnc32)C1 [ibrutinib]
Summary of the method: (§1)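 Thermal stability, expressed as log-two fold change relative to solvent controls, is given from duplicates. Crude K562 extract in PBS pH 7.4 with 1 mM MgCl2, at 1 mg/mL protein, was treated with 10 μM compound for 30 min and heated in aliquots for 3 min across 48°C-58°C. After pooling, adjustment to 0.5% NP-40 at 4°C and centrifugation at 21,000xg for 90 min, supernatant protein was measured by TMTpro 16plex LC-MS/MS with channel sums equalised.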

[2] = compound: CC(=O)c1cnc2ccc(-c3cc(Cl)c(O)c(Cl)c3)nc2c1N[C@H]1CC[C@H](CN(C)C)CC1
Summary of the method: as §1

[3] = compound: CC(C)(C)Cn1c(N)nc2ccc(-c3[nH]c(C(C)(C)C)nc3-c3ccc(F)cc3)nc21 [ralimetinib]
Summary of the method: as §1

[4] = compound: CC(C)(O)CC(=O)NCCn1ccc2ncnc(Nc3ccc(Oc4cccc(C(F)(F)F)c4)c(Cl)c3)c21
Summary of the method: as §1

[5] = compound: CC(C)C1=C2N=C(C=C(N2N=C1)NCC3=CC=CC=C3)NCCCCCCN
Summary of the method: as §1

[6] = compound: CC1=C(C(CC(=O)N1)C2=CC=C(C=C2)C(F)(F)F)C(=O)NC3=C(C=C4C(=C3)C=NN4)F
Summary of the method: as §1

[7] = compound: CC1=C(C2=C(C=C1)C(=O)C3=CC=CC=C3N2CCCN)C
Summary of the method: as §1

[8] = compound: CC1=C(C=C(C=C1)NC(=O)C2=CC(=CC=C2)C(C)(C)C#N)NC3=CC4=C(C=C3)N=CN(C4=O)C
Summary of the method: as §1

[9] = compound: CC1=C(C=C(C=C1)NC(=O)C2=CC(=CC=C2)N(C)C)NC(=O)C3=CC=C(C=C3)O
Summary of the method: as §1

[10] = compound: CC1=CC=C(C=C1)SC2=C3C=C(SC3=CN=C2)C(=O)N
Summary of the method: as §1

Measured: log2 fold change

INTS14 (UniProt Q96SY0)
inactive: [1] -0.006 | [2] -0.008 | [3] 0.023 | [4] -0.012 | [5] -0.048 | [6] -0.003 | [7] -0.029 | [8] -0.004 | [9] 0.006 | [10] -0.01

INTS5 (UniProt Q6P9B9)
inactive: [1] 0.051 | [2] 0.056 | [3] 0.051 | [4] -0.038 | [5] -0.06 | [6] -0.013 | [7] 0.021 | [8] 0 | [9] 0.039 | [10] 0.003

IRS2 (UniProt Q9Y4H2)
inactive: [1] -0.089 | [2] -0.209 | [3] 0.014 | [4] 0.047 | [5] 0.03 | [6] 0.049 | [7] -0.079 | [8] 0.118 | [9] -0.051 | [10] 0.254

ITPA (UniProt Q9BY32)
inactive: [1] -0.028 | [2] 0.01 | [3] -0.021 | [4] -0.026 | [5] -0.013 | [6] -0.045 | [7] -0.021 | [8] 0.036 | [9] -0.017 | [10] -0.003

IPO11 isoform 2 (UniProt Q9UI26)
inactive: [1] -0.03 | [2] -0.023 | [3] -0.002 | [4] -0.026 | [5] -0.008 | [6] 0.024 | [7] 0.005 | [8] 0.038 | [9] 0.01 | [10] -0.016

IQSEC1 (UniProt Q6DN90)
inactive: [1] 0.001 | [2] 0.011 | [3] 0.002 | [4] 0.002 | [5] -0.005 | [6] 0.025 | [7] -0.008 | [8] 0.024 | [9] 0.063 | [10] 0.033

KAZN (UniProt Q674X7)
inactive: [1] 0.06 | [2] -0.017 | [3] 0.04 | [4] -0.068 | [5] 0 | [6] -0.003 | [7] -0.009 | [8] 0.01 | [9] -0.07 | [10] -0.018

INTS3 (UniProt Q68E01)
inactive: [1] 0.044 | [2] 0.024 | [3] 0.019 | [4] -0.032 | [5] 0.032 | [6] -0.035 | [7] 0.004 | [8] 0.009 | [9] 0.025 | [10] -0.032

IQGAP2 (UniProt Q13576)
inactive: [1] 0.002 | [2] 0.002 | [3] 0.027 | [4] -0.022 | [5] -0.004 | [6] 0.004 | [7] -0.012 | [8] 0.01 | [9] 0.031 | [10] -0.001

KBTBD8 (UniProt Q8NFY9)
inactive: [1] 0.006 | [2] -0.026 | [3] -0.06 | [4] -0.014 | [5] -0.025 | [6] 0.001 | [7] 0.014 | [8] 0.015 | [9] 0.007 | [10] 0.072

KANSL3 (UniProt Q9P2N6)
inactive: [1] -0.164 | [2] 0.001 | [3] -0.041 | [4] 0.011 | [5] 0.016 | [6] -0.026 | [7] 0.01 | [8] -0.112 | [9] 0.064 | [10] -0.081

IQGAP1 (UniProt P46940)
inactive: [1] -0.04 | [2] -0.002 | [3] 0.012 | [4] 0 | [5] -0.029 | [6] -0.015 | [7] 0.027 | [8] 0.004 | [9] 0.022 | [10] 0.012

KCNAB2 (UniProt Q13303)
inactive: [1] 0.001 | [2] 0.027 | [3] 0.029 | [4] -0.018 | [5] 0.042 | [6] -0.017 | [7] -0.02 | [8] 0.002 | [9] 0.004 | [10] 0.036

Seven consecutive entries already listed, quoted:
INTS5 (UniProt Q6P9B9)
inactive: [1] 0.051 | [2] 0.056 | [3] 0.051 | [4] -0.038 | [5] -0.06 | [6] -0.013 | [7] 0.021 | [8] 0 | [9] 0.039 | [10] 0.003

IRS2 (UniProt Q9Y4H2)
inactive: [1] -0.089 | [2] -0.209 | [3] 0.014 | [4] 0.047 | [5] 0.03 | [6] 0.049 | [7] -0.079 | [8] 0.118 | [9] -0.051 | [10] 0.254

ITPA (UniProt Q9BY32)
inactive: [1] -0.028 | [2] 0.01 | [3] -0.021 | [4] -0.026 | [5] -0.013 | [6] -0.045 | [7] -0.021 | [8] 0.036 | [9] -0.017 | [10] -0.003

IPO11 isoform 2 (UniProt Q9UI26)
inactive: [1] -0.03 | [2] -0.023 | [3] -0.002 | [4] -0.026 | [5] -0.008 | [6] 0.024 | [7] 0.005 | [8] 0.038 | [9] 0.01 | [10] -0.016

IQSEC1 (UniProt Q6DN90)
inactive: [1] 0.001 | [2] 0.011 | [3] 0.002 | [4] 0.002 | [5] -0.005 | [6] 0.025 | [7] -0.008 | [8] 0.024 | [9] 0.063 | [10] 0.033

KAZN (UniProt Q674X7)
inactive: [1] 0.06 | [2] -0.017 | [3] 0.04 | [4] -0.068 | [5] 0 | [6] -0.003 | [7] -0.009 | [8] 0.01 | [9] -0.07 | [10] -0.018

INTS3 (UniProt Q68E01)
inactive: [1] 0.044 | [2] 0.024 | [3] 0.019 | [4] -0.032 | [5] 0.032 | [6] -0.035 | [7] 0.004 | [8] 0.009 | [9] 0.025 | [10] -0.032

More results follow.

JTB (UniProt O76095)
inactive: [1] 0.156 | [2] 0.122 | [3] -0.019 | [4] -0.078 | [5] -0.097 | [6] 0.07 | [7] -0.052 | [8] -0.063 | [9] -0.011 | [10] -0.174

ISOC1 (UniProt Q96CN7)
inactive: [1] 0.045 | [2] 0.01 | [3] -0.023 | [4] 0.042 | [5] 0.013 | [6] -0.023 | [7] -0.009 | [8] 0 | [9] -0.018 | [10] -0.013

ITFG1 (UniProt Q8TB96)
inactive: [1] 0.019 | [2] -0.019 | [3] -0.006 | [4] -0.02 | [5] -0.044 | [6] 0.007 | [7] 0.008 | [8] -0.014 | [9] 0.012 | [10] -0.078

ITSN1 isoform 8 (UniProt Q15811)
inactive: [1] -0.019 | [2] 0.015 | [3] -0.002 | [4] -0.019 | [5] 0.005 | [6] 0.02 | [7] -0.09 | [8] 0.007 | [9] -0.043 | [10] 0

IVNS1ABP (UniProt Q9Y6Y0)
inactive: [1] -0.069 | [2] -0.002 | [3] 0.02 | [4] -0.062 | [5] 0.017 | [6] 0.104 | [7] -0.008 | [8] -0.033 | [9] 0.026 | [10] 0.001

ISCU (UniProt Q9H1K1)
inactive: [1] 0.009 | [2] -0.055 | [3] -0.07 | [4] -0.059 | [5] -0.002 | [6] -0.004 | [7] 0.036 | [8] -0.064 | [9] 0.032 | [10] -0.014

IPO4 isoform 2 (UniProt Q8TEX9)
inactive: [1] 0.016 | [2] 0.006 | [3] 0.012 | [4] -0.031 | [5] -0.031 | [6] -0.023 | [7] -0.007 | [8] -0.001 | [9] -0.001 | [10] -0.007

ITGB1 (UniProt P05556)
inactive: [1] 0.013 | [2] 0.013 | [3] -0.003 | [4] -0.012 | [5] -0.014 | [6] 0.007 | [7] 0.01 | [8] 0.003 | [9] 0.008 | [10] -0.011

ITPKA (UniProt P23677)
inactive: [1] 0.043 | [2] -0.009 | [3] 0.007 | [4] -0.044 | [5] 0.011 | [6] 0.023 | [7] 0.002 | [8] -0.012 | [9] 0.022 | [10] 0.026

KAT7 (UniProt O95251)
inactive: [1] 0.018 | [2] 0.04 | [3] -0.127 | [4] -0.021 | [5] 0.009 | [6] 0.103 | [7] 0.077 | [8] 0.083 | [9] -0.039 | [10] -0.037

IRF2 (UniProt P14316)
inactive: [1] 0.01 | [2] 0.047 | [3] -0.037 | [4] -0.222 | [5] -0.011 | [6] 0.091 | [7] -0.042 | [8] 0.226 | [9] -0.047 | [10] -0.033

KATNA1 (UniProt O75449)
inactive: [1] -0.016 | [2] 0.024 | [3] 0.015 | [4] -0.047 | [5] -0.035 | [6] 0.017 | [7] -0.011 | [8] -0.004 | [9] -0.016 | [10] 0.037

JMJD4 (UniProt Q9H9V9)
inactive: [1] 0.011 | [2] 0.112 | [3] -0.023 | [4] 0.016 | [5] 0.055 | [6] 0.028 | [7] 0.201 | [8] -0.026 | [9] -0.196 | [10] 0.021

JPT1 (UniProt Q9UK76)
inactive: [1] 0.191 | [2] -0.017 | [3] -0.005 | [4] -0.012 | [5] -0.002 | [6] -0.006 | [7] -0.006 | [8] 0.007 | [9] -0.038 | [10] -0.022

IRF3 (UniProt Q14653)
inactive: [1] 0.011 | [2] 0.033 | [3] 0.036 | [4] -0.016 | [5] -0.005 | [6] 0.019 | [7] -0.004 | [8] 0.037 | [9] -0.049 | [10] 0.006

IPO8 (UniProt O15397)
inactive: [1] -0.033 | [2] -0.029 | [3] 0.033 | [4] -0.019 | [5] -0.034 | [6] -0.024 | [7] -0.002 | [8] 0.009 | [9] 0.032 | [10] -0.031

KDM3B (UniProt Q7LBC6)
inactive: [1] 0.007 | [2] 0.01 | [3] 0.024 | [4] -0.033 | [5] 0.008 | [6] 0.022 | [7] 0.017 | [8] -0.009 | [9] 0.022 | [10] -0.03
